PubChem BioAssay AID1259308 | NCATS, 2017

Screen: 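Knock-downs that increase output of a recombinant reporter protein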 (primary screen)
Cells: human HEK293 embryonic kidney cells stably expressing firefly luciferase (HEK-CMV-Luc2-Hygro)
Reagent: single siRNA against human genes, 0.8 pmol siRNA per well
Time to read-out: 72 h
Detection: 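Reporter luminescence and viable-cell signal on separate replicate plates, given as percent of non-targeting control and median/MAD z-scores, plus per-cell luciferase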
Reading the numbers: total luciferase, z-score and total luciferase, % of control: higher = more reporter protein produced; luciferase per cell, z-score: higher = more reporter output per viable cell; viable cells, % of control: higher = more viable cells
Rule for the call: 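An siRNA counts as active if its total luciferase robust z-score exceeds 3; genes with two or more such siRNAs out of three were retested with fresh siRNAs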
Calls: active = raised luciferase; inactive = no rise
The whole screen tested about 59,000 reagents; below is a part drawn at random. About 1,510 of them (2.6%) count as active. 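Calls use total luciferase alone and ignore viability, so some active siRNAs may act by altering cell number.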 Reagents against one gene are numbered here.

no.	target	reagent	total luciferase, z-score	total luciferase, % of control	luciferase per cell, z-score	viable cells, % of control	call
1	GJA1	1	-1.12	59.6	-0.637	78.7	inactive
2	GJA1	2	0.968	101	1.15	83.4	inactive
3	GJA1	3	1.8	118	1.26	94.5	inactive
4	LCTL	1	-0.768	66.6	-0.635	88	inactive
5	LCTL	2	-0.261	76.7	-0.773	105	inactive
6	LCTL	3	1.68	115	2.01	75.9	inactive
7	IGFN1	1	-1.22	57.7	-1.61	98.6	inactive
8	IGFN1	2	-0.502	71.9	-0.395	89.2	inactive
9	IGFN1	3	-1.39	54.3	-1.28	85	inactive
10	PHOSPHO1	1	0.137	84.6	0.087	92.4	inactive
11	PHOSPHO1	2	2.79	137	1.46	104	inactive
12	PHOSPHO1	3	-1.26	56.9	-1.4	92	inactive
13	SEMA3E	1	-0.893	64.1	-1.04	94.2	inactive
14	SEMA3E	2	0.728	96.4	0.488	94.7	inactive
15	SEMA3E	3	-0.178	78.3	-0.48	99.3	inactive
16	ORC3	1	-2.17	38.8	-2.06	74.6	inactive
17	ORC3	2	1.06	103	1.44	78.7	inactive
18	ORC3	3	0.484	91.5	0.954	79.5	inactive
19	IDI2	1	-0.341	75.1	-0.121	86.6	inactive
20	IDI2	2	-0.875	64.5	-0.722	87.2	inactive
21	IDI2	3	-0.38	74.3	-1.09	111	inactive
22	MTCL3	1	1.72	116	1.18	95	inactive
23	MTCL3	2	2.27	127	2.95	65.2	inactive
24	MTCL3	3	-1.64	49.2	-1.05	72.5	inactive

4 of these entries, set out differently.
PHOSPHO1 #3 → total luciferase, z-score: -1.26; total luciferase, % of control: 56.9; luciferase per cell, z-score: -1.4; viable cells, % of control: 92; call: inactive
SEMA3E #1 → total luciferase, z-score: -0.893; total luciferase, % of control: 64.1; luciferase per cell, z-score: -1.04; viable cells, % of control: 94.2; call: inactive
SEMA3E #2 → total luciferase, z-score: 0.728; total luciferase, % of control: 96.4; luciferase per cell, z-score: 0.488; viable cells, % of control: 94.7; call: inactive
SEMA3E #3 → total luciferase, z-score: -0.178; total luciferase, % of control: 78.3; luciferase per cell, z-score: -0.48; viable cells, % of control: 99.3; call: inactive
